# Test results taken from the supplement of paper PMC12823440, “Inhibitors supercharge kinase turnover through native proteolytic circuits” (Nature, 2025).
# Protein sequences, listed by entry. Tags and fused reporters are not part of them. Lines headed by an entry give the natural chain unless they say otherwise; changes in a name come on top.
# UniProt Q92630: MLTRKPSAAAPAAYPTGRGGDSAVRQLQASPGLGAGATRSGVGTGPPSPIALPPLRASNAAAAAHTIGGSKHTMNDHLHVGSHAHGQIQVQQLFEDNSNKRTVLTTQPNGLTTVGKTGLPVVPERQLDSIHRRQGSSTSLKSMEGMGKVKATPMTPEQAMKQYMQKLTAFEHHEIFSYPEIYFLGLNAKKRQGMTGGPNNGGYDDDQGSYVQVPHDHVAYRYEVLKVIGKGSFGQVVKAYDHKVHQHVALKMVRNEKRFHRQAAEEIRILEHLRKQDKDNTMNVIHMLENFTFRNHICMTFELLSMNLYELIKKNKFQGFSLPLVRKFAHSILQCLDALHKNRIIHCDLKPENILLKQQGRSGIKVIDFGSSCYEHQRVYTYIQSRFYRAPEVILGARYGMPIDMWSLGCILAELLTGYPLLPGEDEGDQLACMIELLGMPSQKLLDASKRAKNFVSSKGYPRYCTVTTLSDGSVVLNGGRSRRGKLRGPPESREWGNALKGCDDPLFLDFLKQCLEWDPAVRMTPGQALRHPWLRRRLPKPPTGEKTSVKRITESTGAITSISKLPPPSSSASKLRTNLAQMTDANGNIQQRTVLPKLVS
# UniProt P42680: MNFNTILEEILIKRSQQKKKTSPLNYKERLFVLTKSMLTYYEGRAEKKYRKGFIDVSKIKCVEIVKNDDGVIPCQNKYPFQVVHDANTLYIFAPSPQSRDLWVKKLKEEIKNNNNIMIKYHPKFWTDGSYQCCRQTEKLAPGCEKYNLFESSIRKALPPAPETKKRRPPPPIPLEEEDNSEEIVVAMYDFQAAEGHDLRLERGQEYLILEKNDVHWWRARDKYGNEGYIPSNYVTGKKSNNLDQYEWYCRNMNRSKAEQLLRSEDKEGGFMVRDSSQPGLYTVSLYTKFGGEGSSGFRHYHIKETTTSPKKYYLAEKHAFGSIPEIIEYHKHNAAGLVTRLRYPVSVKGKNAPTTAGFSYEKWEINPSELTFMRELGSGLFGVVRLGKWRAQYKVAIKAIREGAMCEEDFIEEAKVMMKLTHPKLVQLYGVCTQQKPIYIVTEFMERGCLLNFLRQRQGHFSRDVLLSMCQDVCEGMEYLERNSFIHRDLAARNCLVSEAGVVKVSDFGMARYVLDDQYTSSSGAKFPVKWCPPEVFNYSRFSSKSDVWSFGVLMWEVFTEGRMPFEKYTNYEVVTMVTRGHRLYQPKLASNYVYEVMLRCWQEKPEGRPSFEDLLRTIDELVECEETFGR
# UniProt P06239: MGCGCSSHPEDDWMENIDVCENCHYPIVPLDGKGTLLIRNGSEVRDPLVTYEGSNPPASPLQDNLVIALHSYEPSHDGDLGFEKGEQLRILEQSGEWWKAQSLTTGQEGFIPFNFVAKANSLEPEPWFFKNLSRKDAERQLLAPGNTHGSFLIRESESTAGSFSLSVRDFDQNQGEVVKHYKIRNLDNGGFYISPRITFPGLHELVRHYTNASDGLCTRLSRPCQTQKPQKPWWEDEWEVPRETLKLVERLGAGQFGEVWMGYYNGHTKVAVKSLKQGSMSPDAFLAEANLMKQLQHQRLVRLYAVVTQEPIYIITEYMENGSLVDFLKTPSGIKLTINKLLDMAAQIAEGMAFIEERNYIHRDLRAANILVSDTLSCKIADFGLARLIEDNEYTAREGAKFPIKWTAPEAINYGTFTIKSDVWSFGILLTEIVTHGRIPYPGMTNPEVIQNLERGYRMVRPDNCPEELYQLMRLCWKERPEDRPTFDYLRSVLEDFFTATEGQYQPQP
# UniProt Q08345: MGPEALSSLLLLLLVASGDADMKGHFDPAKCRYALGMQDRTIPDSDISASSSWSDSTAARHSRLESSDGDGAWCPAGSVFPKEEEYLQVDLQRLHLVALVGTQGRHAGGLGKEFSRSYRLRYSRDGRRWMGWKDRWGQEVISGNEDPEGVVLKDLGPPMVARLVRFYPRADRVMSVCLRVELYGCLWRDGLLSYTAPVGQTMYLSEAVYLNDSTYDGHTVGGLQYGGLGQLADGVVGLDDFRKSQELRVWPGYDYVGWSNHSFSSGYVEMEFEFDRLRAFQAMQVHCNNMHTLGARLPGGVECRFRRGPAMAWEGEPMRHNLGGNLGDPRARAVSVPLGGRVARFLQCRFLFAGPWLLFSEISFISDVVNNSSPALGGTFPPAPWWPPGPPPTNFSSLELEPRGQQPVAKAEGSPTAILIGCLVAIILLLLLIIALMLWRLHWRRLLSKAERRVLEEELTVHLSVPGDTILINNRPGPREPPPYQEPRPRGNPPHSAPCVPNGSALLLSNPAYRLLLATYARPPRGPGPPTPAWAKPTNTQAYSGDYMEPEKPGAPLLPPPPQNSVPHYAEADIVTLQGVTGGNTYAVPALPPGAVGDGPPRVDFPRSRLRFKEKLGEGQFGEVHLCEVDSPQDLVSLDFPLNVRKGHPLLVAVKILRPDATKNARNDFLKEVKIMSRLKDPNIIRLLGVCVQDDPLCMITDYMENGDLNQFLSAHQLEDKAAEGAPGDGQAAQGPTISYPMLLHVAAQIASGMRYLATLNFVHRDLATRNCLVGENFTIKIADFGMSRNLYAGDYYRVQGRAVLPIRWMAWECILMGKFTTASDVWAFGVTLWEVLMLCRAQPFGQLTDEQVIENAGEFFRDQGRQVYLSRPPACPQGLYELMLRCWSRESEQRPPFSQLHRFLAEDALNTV
# UniProt Q9UQM7, whole entry: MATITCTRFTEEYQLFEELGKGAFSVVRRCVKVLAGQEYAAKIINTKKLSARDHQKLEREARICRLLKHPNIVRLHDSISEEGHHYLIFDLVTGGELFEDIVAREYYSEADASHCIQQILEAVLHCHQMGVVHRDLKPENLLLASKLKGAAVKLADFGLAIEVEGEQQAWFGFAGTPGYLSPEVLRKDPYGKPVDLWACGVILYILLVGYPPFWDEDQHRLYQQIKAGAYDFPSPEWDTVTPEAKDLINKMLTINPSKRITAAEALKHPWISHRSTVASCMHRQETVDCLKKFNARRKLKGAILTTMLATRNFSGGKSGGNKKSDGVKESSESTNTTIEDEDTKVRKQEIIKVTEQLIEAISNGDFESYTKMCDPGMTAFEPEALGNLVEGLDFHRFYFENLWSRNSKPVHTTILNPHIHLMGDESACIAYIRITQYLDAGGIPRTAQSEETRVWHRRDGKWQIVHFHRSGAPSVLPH
# UniProt P29317, whole entry: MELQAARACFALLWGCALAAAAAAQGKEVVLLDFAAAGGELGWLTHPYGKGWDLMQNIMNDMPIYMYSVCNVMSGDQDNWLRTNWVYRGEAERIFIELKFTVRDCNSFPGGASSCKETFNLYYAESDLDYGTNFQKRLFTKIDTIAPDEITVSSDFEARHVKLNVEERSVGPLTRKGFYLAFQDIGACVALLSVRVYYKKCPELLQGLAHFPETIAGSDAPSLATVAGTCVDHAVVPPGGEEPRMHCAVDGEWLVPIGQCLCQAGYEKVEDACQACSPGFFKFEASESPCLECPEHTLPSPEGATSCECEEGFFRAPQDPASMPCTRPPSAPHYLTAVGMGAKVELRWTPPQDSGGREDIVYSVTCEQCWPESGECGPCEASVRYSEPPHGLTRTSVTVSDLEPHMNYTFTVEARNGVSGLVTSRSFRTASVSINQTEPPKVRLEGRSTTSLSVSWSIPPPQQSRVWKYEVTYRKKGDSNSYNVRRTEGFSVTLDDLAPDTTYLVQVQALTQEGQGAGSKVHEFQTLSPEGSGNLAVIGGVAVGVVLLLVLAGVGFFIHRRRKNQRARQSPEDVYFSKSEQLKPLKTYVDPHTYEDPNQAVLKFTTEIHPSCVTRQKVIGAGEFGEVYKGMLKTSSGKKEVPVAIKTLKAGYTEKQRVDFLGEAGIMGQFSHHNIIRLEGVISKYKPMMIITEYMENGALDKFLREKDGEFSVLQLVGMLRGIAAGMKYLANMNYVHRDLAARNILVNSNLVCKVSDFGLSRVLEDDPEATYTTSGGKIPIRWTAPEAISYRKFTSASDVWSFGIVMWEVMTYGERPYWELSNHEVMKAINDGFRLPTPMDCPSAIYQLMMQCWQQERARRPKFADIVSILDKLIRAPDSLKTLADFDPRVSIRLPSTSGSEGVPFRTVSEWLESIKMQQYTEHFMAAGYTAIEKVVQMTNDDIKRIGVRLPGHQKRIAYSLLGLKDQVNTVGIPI
# UniProt P07947, whole entry, looked up: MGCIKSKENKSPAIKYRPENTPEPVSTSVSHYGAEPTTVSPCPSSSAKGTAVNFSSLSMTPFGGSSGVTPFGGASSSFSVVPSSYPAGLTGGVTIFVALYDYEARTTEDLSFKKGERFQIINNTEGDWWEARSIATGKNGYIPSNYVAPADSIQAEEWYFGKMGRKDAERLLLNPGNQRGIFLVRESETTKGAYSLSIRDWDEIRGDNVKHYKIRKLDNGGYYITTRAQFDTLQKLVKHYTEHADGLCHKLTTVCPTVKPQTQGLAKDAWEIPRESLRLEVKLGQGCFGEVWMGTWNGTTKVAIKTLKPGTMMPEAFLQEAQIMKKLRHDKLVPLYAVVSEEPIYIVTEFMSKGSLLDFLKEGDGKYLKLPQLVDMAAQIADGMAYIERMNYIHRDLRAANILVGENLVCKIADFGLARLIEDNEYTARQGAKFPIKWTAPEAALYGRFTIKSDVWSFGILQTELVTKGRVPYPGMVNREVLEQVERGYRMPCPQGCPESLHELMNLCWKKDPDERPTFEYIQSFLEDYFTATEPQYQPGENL
# UniProt P07948: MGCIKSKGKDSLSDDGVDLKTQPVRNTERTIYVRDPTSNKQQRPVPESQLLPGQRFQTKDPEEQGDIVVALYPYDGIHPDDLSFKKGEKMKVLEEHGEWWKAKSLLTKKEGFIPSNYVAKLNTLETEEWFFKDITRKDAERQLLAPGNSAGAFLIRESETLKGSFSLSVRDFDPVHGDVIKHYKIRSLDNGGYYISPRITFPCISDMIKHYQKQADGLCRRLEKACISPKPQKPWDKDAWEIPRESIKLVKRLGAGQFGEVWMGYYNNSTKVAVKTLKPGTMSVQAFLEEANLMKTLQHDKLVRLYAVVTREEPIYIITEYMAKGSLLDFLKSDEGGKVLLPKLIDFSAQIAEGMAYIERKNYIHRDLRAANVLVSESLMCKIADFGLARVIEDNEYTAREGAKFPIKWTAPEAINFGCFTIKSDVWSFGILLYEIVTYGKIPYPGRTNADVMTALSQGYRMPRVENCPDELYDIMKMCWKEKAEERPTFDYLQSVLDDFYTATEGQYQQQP
# UniProt P15056, whole entry, looked up: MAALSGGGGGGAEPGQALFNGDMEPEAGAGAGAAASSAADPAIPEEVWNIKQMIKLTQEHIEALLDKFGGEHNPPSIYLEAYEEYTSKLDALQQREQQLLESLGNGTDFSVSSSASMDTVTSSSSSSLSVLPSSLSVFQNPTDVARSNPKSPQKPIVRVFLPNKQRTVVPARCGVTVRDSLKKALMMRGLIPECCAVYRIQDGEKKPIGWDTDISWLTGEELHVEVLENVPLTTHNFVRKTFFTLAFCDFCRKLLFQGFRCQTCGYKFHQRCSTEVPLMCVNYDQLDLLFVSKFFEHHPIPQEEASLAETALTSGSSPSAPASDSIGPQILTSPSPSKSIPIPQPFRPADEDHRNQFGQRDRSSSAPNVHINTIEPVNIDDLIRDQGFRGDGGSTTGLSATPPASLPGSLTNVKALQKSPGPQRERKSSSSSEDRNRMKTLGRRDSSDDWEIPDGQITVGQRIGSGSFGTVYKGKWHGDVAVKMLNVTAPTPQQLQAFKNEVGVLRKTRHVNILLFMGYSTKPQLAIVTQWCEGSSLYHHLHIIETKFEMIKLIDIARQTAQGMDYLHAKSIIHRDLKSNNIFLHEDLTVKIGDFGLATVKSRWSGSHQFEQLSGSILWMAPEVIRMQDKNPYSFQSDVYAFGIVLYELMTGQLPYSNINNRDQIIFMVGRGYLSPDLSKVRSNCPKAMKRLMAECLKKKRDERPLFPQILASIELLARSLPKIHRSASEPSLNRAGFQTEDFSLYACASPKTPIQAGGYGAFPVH
# UniProt Q13131: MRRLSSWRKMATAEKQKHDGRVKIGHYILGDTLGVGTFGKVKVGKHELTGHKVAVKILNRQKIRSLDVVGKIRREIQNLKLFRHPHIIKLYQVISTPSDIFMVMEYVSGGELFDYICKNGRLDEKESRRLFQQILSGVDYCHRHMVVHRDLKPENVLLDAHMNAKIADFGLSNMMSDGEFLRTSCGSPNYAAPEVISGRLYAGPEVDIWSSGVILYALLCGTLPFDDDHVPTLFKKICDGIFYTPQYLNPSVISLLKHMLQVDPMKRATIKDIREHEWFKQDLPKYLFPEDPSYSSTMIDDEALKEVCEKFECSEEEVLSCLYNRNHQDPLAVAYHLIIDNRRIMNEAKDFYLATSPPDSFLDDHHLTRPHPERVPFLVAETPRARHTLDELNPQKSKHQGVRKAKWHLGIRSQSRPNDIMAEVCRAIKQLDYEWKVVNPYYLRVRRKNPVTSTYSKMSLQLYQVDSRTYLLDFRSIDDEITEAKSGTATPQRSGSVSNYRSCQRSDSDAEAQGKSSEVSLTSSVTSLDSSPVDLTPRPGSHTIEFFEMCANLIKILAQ
# This is one part of the list. Hit calls seldom repeat between salt and free forms of one compound.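 Kinases were expressed as nanoluciferase fusions in K562 cells and luminescence was read every 4 h between 2 and 18 h as percent of control, DMSO set to 100% and a positive control to 0%. A time point counts as decreased when the signal drops significantly (2 sigma). The hit call is the authors' own, does not follow from the count of time points alone, and its rule is not shown.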
# Key:
# Experiment in all cases: number of time points (of 5) at which kinase-Nluc abundance scored as decreased, DMSO-normalised (count); higher = more persistent destabilization
# [1] = compound: CNC(=O)c1ccccc1Nc1cc(Nc2ccc(N3CCOCC3)cc2OC)ncc1C(F)(F)F; conditions: 10 µM; K562; 2-18 h
# [2] = compound: CNc1ncc2cc(-c3ccc(-c4cccc(C)n4)cc3Cl)c(=O)n(C[C@H]3OC[C@H](N)CO3)c2n1 [G-5555 (hydrochloride)]; conditions: 10 µM; K562; 2-18 h
# [3] = compound: CNc1ncc2cc(-c3ccc(-c4cccc(C)n4)cc3Cl)c(=O)n(C[C@H]3OC[C@H](N)CO3)c2n1; conditions: 10 µM; K562; 2-18 h
# [4] = compound: COC(=O)[C@H](CC(C)C)NC(=O)c1ccc(NC[C@@H](N)CS)cc1-c1cccc2ccccc12 [GGTI298 (Trifluoroacetate)]; conditions: 10 µM; K562; 2-18 h
# [5] = compound: COC(=O)[C@H](CC(C)C)NC(=O)c1ccc(NC[C@@H](N)CS)cc1-c1cccc2ccccc12; conditions: 10 µM; K562; 2-18 h
# [6] = compound: COCCOc1cc(F)c2c(Nc3ccc(NC(=O)Cn4cc(C(C)C)nn4)cc3)ncnc2c1 [AZD3229 Tosylate]; conditions: 10 µM; K562; 2-18 h
# [7] = compound: COCCOc1cc(F)c2c(Nc3ccc(NC(=O)Cn4cc(C(C)C)nn4)cc3)ncnc2c1; conditions: 10 µM; K562; 2-18 h
# [8] = compound: COc1cc(/C=C/C(=O)O)ccc1O [Ferulic acid (sodium)]; conditions: 10 µM; K562; 2-18 h
# [9] = compound: COc1cc(/C=C/C(=O)O)ccc1O [Ferulic acid]; conditions: 10 µM; K562; 2-18 h
# [10] = compound: COc1cc2c(-c3cnn4cc(N5CCC(N6CCN(C)CC6)CC5)cnc34)ccnc2cc1F [ALK2-IN-4 (succinate)]; conditions: 10 µM; K562; 2-18 h
# [11] = compound: COc1cc2c(-c3cnn4cc(N5CCC(N6CCN(C)CC6)CC5)cnc34)ccnc2cc1F; conditions: 10 µM; K562; 2-18 h
# [12] = compound: COc1cc2c(Oc3ccc4[nH]c(C)cc4c3F)ncnc2cc1OCCCN1CCCC1 [Cediranib (maleate)]; conditions: 2.5 µM; K562; 2-18 h
# [13] = compound: COc1cc2c(Oc3ccc4[nH]c(C)cc4c3F)ncnc2cc1OCCCN1CCCC1 [Cediranib]; conditions: 2.5 µM; K562; 2-18 h
# [14] = compound: COc1cc2c(cc1OC)-c1c(C)c3ccc(OC)c(OC)c3c[n+]1CC2 [Dehydrocorydaline (chloride)]; conditions: 10 µM; K562; 2-18 h
# [15] = compound: COc1cc2c(cc1OC)-c1c(C)c3ccc(OC)c(OC)c3c[n+]1CC2 [Dehydrocorydaline]; conditions: 10 µM; K562; 2-18 h
# [16] = compound: COc1cc2nccc(Nc3cc(OC)c(OC)c(OC)c3)c2cc1OC [GAK inhibitor 49 (hydrochloride)]; conditions: 10 µM; K562; 2-18 h
# [17] = compound: COc1cc2nccc(Nc3cc(OC)c(OC)c(OC)c3)c2cc1OC [GAK inhibitor 49]; conditions: 10 µM; K562; 2-18 h
# [18] = compound: COc1cc2nccc(Oc3ccc(NC(=O)C4(C(=O)Nc5ccc(F)cc5)CC4)cc3)c2cc1OC [Cabozantinib (S-malate)]; conditions: 10 µM; K562; 2-18 h
# [19] = compound: COc1cc2nccc(Oc3ccc(NC(=O)C4(C(=O)Nc5ccc(F)cc5)CC4)cc3)c2cc1OC [Cabozantinib]; conditions: 2.5 µM; K562; 2-18 h
# [20] = compound: COc1ccc(S(=O)(=O)N(CCO)c2ccccc2CN(C)C/C=C/c2ccc(Cl)cc2)cc1 [KN-93 (hydrochloride)]; conditions: 2.5 µM; K562; 2-18 h
Target,number of time points [1],number of time points [2],number of time points [3],number of time points [4],number of time points [5],number of time points [6],number of time points [7],number of time points [8],number of time points [9],number of time points [10],number of time points [11],number of time points [12],number of time points [13],number of time points [14],number of time points [15],number of time points [16],number of time points [17],number of time points [18],number of time points [19],number of time points [20]
PRKCA (UniProt P17252),0,0,0,0,0,0,0,0,0,0,0,0,0,0,0,0,0,0,0,0
ULK3 (UniProt Q6PHR2),0,3,0,0,0,0,0,0,0,0,0,0,0,0,0,3,2,5,3,0
RIPK1 (UniProt Q13546),0,0,0,0,0,0,0,0,0,0,0,0,0,0,0,0,2,2,2,0
DYRK2 (UniProt Q92630),0,4,0,0,0,1,0,0,0,0,0,0,0,0,0,3,3,4,4,0
FGR (UniProt P09769),0,0,0,0,0,0,0,0,0,0,0,0,0,0,0,0,0,0,0,0
TEC (UniProt P42680),0,0,0,0,0,0,0,0,0,0,0,0,0,0,0,0,0,2,0,0
INSRR (UniProt P14616),0,1,0,0,0,0,0,0,0,0,0,0,0,0,0,3,2,3,2,0
SRC (UniProt P12931),0,0,0,0,0,0,0,0,0,0,0,0,0,0,0,0,0,0,0,0
RAF1 (UniProt P04049),0,0,0,0,0,0,0,0,0,0,0,0,0,0,0,2,2,0,2,0
LCK (UniProt P06239),0,0,0,0,0,0,0,0,0,0,0,0,0,0,0,0,0,0,0,0
EGFR_G719S (UniProt P00533),0,0,0,0,0,0,0,0,0,0,0,0,0,0,0,0,3,0,2,0
BLK (UniProt P51451),0,0,0,0,0,0,0,0,0,0,0,0,0,0,0,0,2,0,0,0
CSF1R (UniProt P07333),0,0,0,0,0,0,0,0,0,0,0,0,0,0,0,0,0,1,1,0
DDR1 (UniProt Q08345),0,0,0,0,0,0,0,0,0,0,0,0,0,0,0,3,3,2,1,0
CAMK2A (UniProt Q9UQM7),0,0,0,0,0,0,0,0,0,0,0,0,0,0,0,0,0,0,0,0
EPHA2 (UniProt P29317),0,0,0,0,0,0,0,0,0,0,0,0,0,0,0,0,0,0,0,0

Target,number of time points [1],number of time points [2],number of time points [3],number of time points [4],number of time points [5],number of time points [6],number of time points [7],number of time points [8],number of time points [9],number of time points [10],number of time points [11],number of time points [12],number of time points [13],number of time points [14],number of time points [15],number of time points [16],number of time points [17],number of time points [18],number of time points [19],number of time points [20]
AKT1 (UniProt P31749),0,0,0,0,0,0,0,0,0,0,0,0,0,0,0,0,0,0,0,0
HER2 (UniProt P04626),0,0,0,0,0,0,0,0,0,0,0,0,0,0,0,3,3,2,1,0
YES1 (UniProt P07947),0,0,0,0,0,0,0,0,0,0,0,0,0,0,0,1,0,0,1,0
CDK3 (UniProt Q00526),0,0,0,0,0,0,0,0,0,0,0,0,0,0,0,0,0,0,0,0
STK24 (UniProt Q9Y6E0),0,0,0,0,0,0,0,0,0,0,0,0,0,0,0,0,0,1,0,0
RAF1_S257L (clone: RAF1_mut) (UniProt P04049),0,0,0,0,0,0,0,0,0,0,0,0,0,0,0,0,3,4,0,0
AURKA (UniProt O14965),0,0,0,0,0,0,0,0,0,0,0,0,0,0,0,0,0,1,1,0
BRAF_V600E,0,0,0,0,0,0,0,0,0,0,0,0,0,0,0,1,1,4,2,0
FGFR1 (UniProt P11362),0,0,0,0,0,0,0,0,0,0,0,0,0,0,0,0,2,4,1,0
LYN (UniProt P07948),0,2,0,0,0,0,0,0,0,0,0,0,0,0,0,0,0,0,0,0
BRAF (UniProt P15056),0,0,0,0,0,0,0,0,0,0,0,0,0,0,0,0,0,3,0,0
ABL1 (UniProt P00519),0,1,4,0,0,0,0,0,0,0,0,0,0,0,0,3,4,4,2,0
PRKAA1 (UniProt Q13131),0,0,0,0,0,0,0,0,0,0,0,0,0,0,0,0,0,1,3,0
GSK3A (UniProt P49840),0,0,0,0,0,0,0,0,0,0,0,0,0,0,0,0,0,0,0,0
CDK5 (UniProt Q00535),0,0,0,0,0,0,0,0,0,0,0,0,0,0,0,0,0,0,0,0
